In publication PMC11189300:
These are yes or no findings as the source states them, for the method shown. Some entries that bind do so weakly or less than the wild type.

Sequences of proteins named here, by UniProt entry; tags and fusion partners are left off. A change or cut given only in a name is not applied to a line headed by its entry. Residues count along the entry.
UniProt Q8NBT2: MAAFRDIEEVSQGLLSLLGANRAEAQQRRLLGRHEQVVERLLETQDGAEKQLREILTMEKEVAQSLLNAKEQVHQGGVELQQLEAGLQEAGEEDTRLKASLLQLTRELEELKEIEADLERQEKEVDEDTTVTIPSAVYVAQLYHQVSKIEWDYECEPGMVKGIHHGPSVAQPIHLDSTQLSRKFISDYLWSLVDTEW
UniProt Q9HBM1: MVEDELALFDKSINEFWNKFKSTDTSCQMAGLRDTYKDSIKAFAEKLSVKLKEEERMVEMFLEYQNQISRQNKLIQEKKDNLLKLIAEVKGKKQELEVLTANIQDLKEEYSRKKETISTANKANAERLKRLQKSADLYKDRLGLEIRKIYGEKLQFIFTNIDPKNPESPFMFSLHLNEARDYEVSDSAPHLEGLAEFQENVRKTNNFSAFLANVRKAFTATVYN
UniProt Q9H081: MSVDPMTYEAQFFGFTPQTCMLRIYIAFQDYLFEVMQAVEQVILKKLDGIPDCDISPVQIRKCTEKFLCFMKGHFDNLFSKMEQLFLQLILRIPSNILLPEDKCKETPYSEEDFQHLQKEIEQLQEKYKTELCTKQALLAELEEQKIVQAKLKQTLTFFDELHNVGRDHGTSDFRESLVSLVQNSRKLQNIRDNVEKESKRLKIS
UniProt Q8NG31, residues 2021-2342: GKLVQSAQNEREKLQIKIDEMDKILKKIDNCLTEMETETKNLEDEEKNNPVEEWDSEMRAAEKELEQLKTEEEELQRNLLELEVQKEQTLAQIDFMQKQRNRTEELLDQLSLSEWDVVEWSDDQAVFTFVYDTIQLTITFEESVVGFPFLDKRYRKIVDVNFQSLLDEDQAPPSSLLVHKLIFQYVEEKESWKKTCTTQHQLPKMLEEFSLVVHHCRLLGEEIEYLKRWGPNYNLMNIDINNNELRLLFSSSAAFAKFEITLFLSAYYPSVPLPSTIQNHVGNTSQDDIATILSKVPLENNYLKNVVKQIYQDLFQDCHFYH
UniProt Q96IY1: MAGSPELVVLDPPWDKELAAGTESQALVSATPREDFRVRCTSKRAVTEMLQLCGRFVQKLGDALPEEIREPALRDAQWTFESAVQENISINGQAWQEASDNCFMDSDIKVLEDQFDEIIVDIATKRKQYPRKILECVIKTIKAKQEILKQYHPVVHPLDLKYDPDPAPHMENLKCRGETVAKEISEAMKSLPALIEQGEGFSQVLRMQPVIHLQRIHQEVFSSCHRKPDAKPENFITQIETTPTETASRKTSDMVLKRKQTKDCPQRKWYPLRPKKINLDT

Legend:
[1] = target: SPC24_(109–197)/SPC25_(92–224) dimer (human) (UniProt Q8NBT2+Q9HBM1); experiment: cryo-EM structure; eight-subunit KMN (full-length Mis12C, SPC24 109–197/SPC25 92–224, ZWINT, KNL1 2,021–2,342), 0.3 mg/ml with 0.003% Triton; reconstruction at 4.5 Å; model fitted from known structures and AF2 predictions and refined against the map; both purified
[2] = target: MIS12 (subunit of Mis12C in the KMN structure) (human) (UniProt Q9H081); experiment: as above

Row | Substance | binding [1] | binding [2]
1 | KNL1 residues 2,021–2,342 (from UniProt Q8NG31 2021-2342) (domain or fragment) | no binding | 
2 | NSL1 (subunit of Mis12C in the KMN structure) (from UniProt Q96IY1 1-281) |  | binds
